Drawing on paper PMC12375108, this text covers binding for 4 molecules.

Test [1] has as its target GST-tagged T. marianensis hinT H100N (Thermaerobacter marianensis). Briefly: pull-down; purine nucleotide competition: 5 μg hinT on glutathione agarose, 5 μg sucA-AMP (470 nM) with no nucleotide or AMP or GMP at 1:1, 1:5 or 1:25 molar ratio; 1 h at 4 °C; α-AMP immunoblot; both purified.
The target is the same in test [2]. Put plainly: pull-down; 25 μg GST-Tm hinT on glutathione agarose, 25 μg Ni-NTA purified sucA or sucA-AMP, overnight at 4 °C, TBSTX-100; eluted with 100 mM AMP; Coomassie, α-AMP and α-His immunoblot; both purified.
The target is the same in test [3]. Put plainly: BLI; GST-hinT (90 nM) immobilised on anti-GST biosensors; sucA-AMP 500 to 7.81 nM, unmodified sucA at 500 nM; 10 mM Tris pH 8, 150 mM NaCl, 0.1% Triton X-100; KD from steady-state responses, one site; both purified.
The target is the same in test [4]. Briefly: pull-down; 5 μg GST or GST-hinT on glutathione agarose, 2 μg AMPylated substrate, 1 h at 4 °C, TBSTX-100 with 1 mM DTT; α-AMP immunoblot; both purified. For orientation: Immunoblotting shows a protein as a band on a membrane.
The target in the next test is non-AMPylated Rab1. Briefly: far-Western, overlay or dot blot; dot blot: 400 ng to 25 ng of AMPylated or non-AMPylated protein spotted on nitrocellulose, probed with GST or GST-hinT at 0.125 μg/mL in TBST for 1 h, detected with α-GST; both purified.

Results are given in words; binding and its absence hold for the method and conditions named. For part of these data: A result given as binding can be weak or reduced; the word gives no strength. For part of these data: Where a sequence is shown, tags or fusion partners need not be part of it.

B1: AMPylated sucA (enzyme, UniProt P0AFG3 1-933)
chain: MQNSALKAWLDSSYLSGANQSWIEQLYEDFLTDPDSVDANWRSTFQQLPGTGVKPDQFHSQTREYFRRLAKDASRYSSTISDPDTNVKQVKVLQLINAYRFRGHQHANLDPLGLWQQDKVADLDPSFHDLTEADFQETFNVGSFASGKETMKLGELLEALKQTYCGPIGAEYMHITSTEEKRWIQQRIESGRATFNSEEKKRFLSELTAAEGLERYLGAKFPGAKRFSLEGGDALIPMLKEMIRHAGNSGTREVVLGMAHRGRLNVLVNVLGKKPQDLFDEFAGKHKEHLGTGDVKYHMGFSSDFQTDGGLVHLALAFNPSHLEIVSPVVIGSVRARLDRLDEPSSNKVLPITIHGDAAVTGQGVVQETLNMSKARGYEVGGTVRIVINNQVGFTTSNPLDARSTPYCTDIGKMVQAPIFHVNADDPEAVAFVTRLALDFRNTFKRDVFIDLVCYRRHGHNEADEPSATQPLMYQKIKKHPTPRKIYADKLEQEKVATLEDATEMVNLYRDALDAGDCVVAEWRPMNMHSFTWSPYLNHEWDEEYPNKVEMKRLQELAKRISTVPEAVEMQSRVAKIYGDRQAMAAGEKLFDWGGAENLAYATLVDEGIPVRLSGEDSGRGTFFHRHAVIHNQSNGSTYTPLQHIHNGQGAFRVWDSVLSEEAVLAFEYGYATAEPRTLTIWEAQFGDFANGAQVVIDQFISSGEQKWGRMCGLVMLLPHGYEGQGPEHSSARLERYLQLCAEQNMQVCVPSTPAQVYHMLRRQALRGMRRPLVVMSPKSLLRHPLAVSSLEELANGTFLPAIGEIDELDPKGVKRVVMCSGKVYYDLLEQRRKNNQHDVAIVRIEQLYPFPHKAMQEVLQQFAHVKDFVWCQEEPLNQGAWYCSQHHFREVIPFGASLRYAGRPASASPAVGYMSVHQKQQQDLVNDALNVE
modifications: multiple AMPylation sites, residues not given
As for B1, the binding result in test [1] and in test [2] was “binds” each time.

B2: unmodified sucA (enzyme, UniProt P0AFG3 1-933)
chain: B1 chain
Take B2: the binding result is “no binding (tested: 500 nM)” in test [3] and “no binding” in test [2].

B3: AMPylated sodA (enzyme, UniProt P00448 1-206)
chain: MSYTLPSLPYAYDALEPHFDKQTMEIHHTKHHQTYVNNANAALESLPEFANLPVEELITKLDQLPADKKTVLRNNAGGHANHSLFWKGLKKGTTLQGDLKAAIERDFGSVDNFKAEFEKAAASRFGSGWAWLVLKGDKLAVVSTANQDSPLMGEAISGASGFPIMGLDVWEHAYYLKFQNRRPDYIKEFWNVVNWDEAAARFAAKK
modifications: AMPylated on tyrosine, residue not given
As to B3, the binding entry in test [4] is “binds”.

B4: GST-tagged H. sapiens hinT H112N (enzyme, UniProt P49773 1-126)
chain: MADEIAKAQVARPGGDTIFGKIIRKEIPAKIIFEDDRCLAFHDISPQAPTHFLVIPKKHISQISVAEDDDESLLGHLMIVGKKCAADLGLNKGYRMVVNEGSDGGQSVYHVNLHVLGGRQMHWPPG
As to B4, the binding entry with non-AMPylated Rab1 was “no binding (tested: 0.125 μg/mL; up to 400 ng spotted)”.
